From the supplement of paper PMC12823440, “Inhibitors supercharge kinase turnover through native proteolytic circuits” (Nature, 2025)
Some of the results follow. The calls rarely recur for the same compound in another form.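 In K562 cells expressing nanoluciferase-fused kinases, luminescence was recorded at 4 h intervals between 2 and 18 h, normalized as percent of control with DMSO at 100% and a positive control at 0%. A significant (2 sigma) signal drop marks a time point as decreased. The authors' rule for a hit is not shown and takes in more than the number of time points.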

Amino acid sequences for entries named in this document (tags omitted). A change or cut given only in a name is not applied to a line headed by its entry.
UniProt P07949, whole entry, looked up: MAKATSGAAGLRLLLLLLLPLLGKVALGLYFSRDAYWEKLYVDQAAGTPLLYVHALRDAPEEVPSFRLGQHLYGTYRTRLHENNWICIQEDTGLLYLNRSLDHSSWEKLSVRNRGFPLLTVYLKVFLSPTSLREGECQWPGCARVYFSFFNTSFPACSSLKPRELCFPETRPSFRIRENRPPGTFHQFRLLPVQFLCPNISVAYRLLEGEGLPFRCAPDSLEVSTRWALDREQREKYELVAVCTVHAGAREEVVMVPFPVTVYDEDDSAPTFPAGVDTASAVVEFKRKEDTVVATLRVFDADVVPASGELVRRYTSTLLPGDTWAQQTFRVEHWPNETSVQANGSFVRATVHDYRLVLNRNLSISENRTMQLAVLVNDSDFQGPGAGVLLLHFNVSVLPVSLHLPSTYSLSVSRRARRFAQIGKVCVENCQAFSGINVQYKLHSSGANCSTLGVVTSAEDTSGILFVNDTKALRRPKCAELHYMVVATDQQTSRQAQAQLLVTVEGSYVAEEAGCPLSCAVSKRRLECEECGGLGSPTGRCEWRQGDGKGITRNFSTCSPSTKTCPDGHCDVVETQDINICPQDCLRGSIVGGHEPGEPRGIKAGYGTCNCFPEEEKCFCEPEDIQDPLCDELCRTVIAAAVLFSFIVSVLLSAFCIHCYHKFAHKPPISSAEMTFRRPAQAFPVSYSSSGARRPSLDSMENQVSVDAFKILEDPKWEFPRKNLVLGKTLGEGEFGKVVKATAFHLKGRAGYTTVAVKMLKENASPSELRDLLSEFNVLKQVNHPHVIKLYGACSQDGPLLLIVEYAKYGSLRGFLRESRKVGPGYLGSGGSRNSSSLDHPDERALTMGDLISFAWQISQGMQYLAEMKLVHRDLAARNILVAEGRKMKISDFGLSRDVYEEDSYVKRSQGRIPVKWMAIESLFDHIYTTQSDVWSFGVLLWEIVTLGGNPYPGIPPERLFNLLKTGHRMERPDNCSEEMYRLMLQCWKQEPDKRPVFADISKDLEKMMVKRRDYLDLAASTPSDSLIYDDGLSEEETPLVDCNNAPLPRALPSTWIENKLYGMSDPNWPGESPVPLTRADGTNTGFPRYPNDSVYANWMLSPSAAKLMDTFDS
UniProt P07949, whole entry M918T, looked up: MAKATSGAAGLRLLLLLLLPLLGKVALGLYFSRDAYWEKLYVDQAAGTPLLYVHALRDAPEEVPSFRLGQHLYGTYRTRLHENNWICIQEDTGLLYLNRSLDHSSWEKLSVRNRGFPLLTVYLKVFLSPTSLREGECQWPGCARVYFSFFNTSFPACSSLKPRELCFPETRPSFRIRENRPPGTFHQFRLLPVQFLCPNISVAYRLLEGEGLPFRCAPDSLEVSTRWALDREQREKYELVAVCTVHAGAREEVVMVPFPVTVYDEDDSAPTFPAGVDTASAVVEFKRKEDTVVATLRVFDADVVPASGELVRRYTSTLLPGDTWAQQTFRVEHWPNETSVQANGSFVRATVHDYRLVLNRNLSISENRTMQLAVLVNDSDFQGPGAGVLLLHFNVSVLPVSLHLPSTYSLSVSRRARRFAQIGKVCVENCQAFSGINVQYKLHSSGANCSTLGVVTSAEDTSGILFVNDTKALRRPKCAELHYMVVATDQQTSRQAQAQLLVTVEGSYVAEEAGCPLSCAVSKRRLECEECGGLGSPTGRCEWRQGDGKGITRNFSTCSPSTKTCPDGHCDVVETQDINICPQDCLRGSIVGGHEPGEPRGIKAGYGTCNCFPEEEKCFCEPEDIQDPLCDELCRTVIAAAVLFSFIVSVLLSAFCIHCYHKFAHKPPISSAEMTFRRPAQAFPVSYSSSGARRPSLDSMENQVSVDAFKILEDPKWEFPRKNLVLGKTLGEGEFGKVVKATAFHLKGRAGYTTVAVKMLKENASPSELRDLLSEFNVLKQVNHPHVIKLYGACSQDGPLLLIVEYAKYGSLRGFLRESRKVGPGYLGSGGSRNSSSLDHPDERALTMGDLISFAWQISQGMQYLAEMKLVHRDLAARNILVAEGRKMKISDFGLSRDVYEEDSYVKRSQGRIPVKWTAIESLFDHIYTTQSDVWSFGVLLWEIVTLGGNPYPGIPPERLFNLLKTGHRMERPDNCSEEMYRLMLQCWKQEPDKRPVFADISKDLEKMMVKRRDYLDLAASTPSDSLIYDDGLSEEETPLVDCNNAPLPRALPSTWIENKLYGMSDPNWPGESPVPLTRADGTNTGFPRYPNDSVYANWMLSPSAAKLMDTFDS
UniProt Q15418, whole entry: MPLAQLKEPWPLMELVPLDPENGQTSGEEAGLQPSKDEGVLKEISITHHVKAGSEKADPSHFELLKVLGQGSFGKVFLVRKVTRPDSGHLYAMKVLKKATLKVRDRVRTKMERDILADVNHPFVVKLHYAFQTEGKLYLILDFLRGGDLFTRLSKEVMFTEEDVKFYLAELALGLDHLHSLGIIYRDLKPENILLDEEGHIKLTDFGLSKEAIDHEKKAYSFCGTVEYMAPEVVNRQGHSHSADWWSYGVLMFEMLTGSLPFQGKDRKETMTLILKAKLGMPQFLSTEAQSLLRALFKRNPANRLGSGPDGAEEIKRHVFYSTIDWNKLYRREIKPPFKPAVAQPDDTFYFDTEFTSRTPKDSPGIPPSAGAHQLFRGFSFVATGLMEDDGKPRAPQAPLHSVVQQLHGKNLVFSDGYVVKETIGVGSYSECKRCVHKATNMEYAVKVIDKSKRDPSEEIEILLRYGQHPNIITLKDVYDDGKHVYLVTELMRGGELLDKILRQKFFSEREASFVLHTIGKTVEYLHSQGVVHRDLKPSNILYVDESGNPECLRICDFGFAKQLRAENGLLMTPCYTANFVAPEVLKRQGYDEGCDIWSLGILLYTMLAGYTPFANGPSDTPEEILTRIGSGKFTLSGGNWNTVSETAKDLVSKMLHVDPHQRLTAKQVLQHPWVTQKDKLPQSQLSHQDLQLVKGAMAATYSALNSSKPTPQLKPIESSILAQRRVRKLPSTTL
UniProt Q9NYA1, whole entry: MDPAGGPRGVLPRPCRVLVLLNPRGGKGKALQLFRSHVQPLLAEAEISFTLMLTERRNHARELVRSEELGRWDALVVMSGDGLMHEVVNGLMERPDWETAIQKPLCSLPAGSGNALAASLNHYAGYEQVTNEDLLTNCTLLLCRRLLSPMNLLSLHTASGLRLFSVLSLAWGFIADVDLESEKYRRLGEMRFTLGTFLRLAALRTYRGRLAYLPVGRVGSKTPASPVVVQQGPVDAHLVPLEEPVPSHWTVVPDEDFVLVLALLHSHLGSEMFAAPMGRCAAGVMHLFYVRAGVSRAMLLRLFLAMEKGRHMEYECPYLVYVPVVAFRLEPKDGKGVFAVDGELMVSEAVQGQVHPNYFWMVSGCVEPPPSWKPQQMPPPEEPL
UniProt Q9Y6E0: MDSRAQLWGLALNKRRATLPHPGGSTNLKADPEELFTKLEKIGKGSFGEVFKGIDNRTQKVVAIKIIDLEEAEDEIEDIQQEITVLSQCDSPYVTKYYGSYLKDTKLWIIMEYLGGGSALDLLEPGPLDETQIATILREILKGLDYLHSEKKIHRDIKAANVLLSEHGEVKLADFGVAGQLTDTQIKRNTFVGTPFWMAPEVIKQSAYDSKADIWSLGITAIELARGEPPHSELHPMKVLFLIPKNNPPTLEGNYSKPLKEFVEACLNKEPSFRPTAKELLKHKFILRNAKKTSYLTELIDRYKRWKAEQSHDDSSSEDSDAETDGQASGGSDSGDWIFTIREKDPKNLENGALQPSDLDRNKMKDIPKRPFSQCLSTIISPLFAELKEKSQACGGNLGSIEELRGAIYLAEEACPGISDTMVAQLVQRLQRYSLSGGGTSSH
UniProt Q15208: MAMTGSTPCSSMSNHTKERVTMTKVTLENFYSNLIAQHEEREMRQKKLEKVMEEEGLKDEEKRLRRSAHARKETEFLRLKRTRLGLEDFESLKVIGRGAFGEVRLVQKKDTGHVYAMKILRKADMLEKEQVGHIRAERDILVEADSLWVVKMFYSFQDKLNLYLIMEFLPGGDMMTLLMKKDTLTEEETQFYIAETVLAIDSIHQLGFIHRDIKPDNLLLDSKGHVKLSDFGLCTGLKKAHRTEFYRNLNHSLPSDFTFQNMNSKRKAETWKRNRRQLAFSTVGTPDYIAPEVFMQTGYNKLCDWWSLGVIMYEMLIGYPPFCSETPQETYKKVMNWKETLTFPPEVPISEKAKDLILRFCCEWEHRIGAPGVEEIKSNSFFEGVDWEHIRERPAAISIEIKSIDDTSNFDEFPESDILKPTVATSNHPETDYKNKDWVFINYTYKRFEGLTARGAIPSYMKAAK
UniProt P29597: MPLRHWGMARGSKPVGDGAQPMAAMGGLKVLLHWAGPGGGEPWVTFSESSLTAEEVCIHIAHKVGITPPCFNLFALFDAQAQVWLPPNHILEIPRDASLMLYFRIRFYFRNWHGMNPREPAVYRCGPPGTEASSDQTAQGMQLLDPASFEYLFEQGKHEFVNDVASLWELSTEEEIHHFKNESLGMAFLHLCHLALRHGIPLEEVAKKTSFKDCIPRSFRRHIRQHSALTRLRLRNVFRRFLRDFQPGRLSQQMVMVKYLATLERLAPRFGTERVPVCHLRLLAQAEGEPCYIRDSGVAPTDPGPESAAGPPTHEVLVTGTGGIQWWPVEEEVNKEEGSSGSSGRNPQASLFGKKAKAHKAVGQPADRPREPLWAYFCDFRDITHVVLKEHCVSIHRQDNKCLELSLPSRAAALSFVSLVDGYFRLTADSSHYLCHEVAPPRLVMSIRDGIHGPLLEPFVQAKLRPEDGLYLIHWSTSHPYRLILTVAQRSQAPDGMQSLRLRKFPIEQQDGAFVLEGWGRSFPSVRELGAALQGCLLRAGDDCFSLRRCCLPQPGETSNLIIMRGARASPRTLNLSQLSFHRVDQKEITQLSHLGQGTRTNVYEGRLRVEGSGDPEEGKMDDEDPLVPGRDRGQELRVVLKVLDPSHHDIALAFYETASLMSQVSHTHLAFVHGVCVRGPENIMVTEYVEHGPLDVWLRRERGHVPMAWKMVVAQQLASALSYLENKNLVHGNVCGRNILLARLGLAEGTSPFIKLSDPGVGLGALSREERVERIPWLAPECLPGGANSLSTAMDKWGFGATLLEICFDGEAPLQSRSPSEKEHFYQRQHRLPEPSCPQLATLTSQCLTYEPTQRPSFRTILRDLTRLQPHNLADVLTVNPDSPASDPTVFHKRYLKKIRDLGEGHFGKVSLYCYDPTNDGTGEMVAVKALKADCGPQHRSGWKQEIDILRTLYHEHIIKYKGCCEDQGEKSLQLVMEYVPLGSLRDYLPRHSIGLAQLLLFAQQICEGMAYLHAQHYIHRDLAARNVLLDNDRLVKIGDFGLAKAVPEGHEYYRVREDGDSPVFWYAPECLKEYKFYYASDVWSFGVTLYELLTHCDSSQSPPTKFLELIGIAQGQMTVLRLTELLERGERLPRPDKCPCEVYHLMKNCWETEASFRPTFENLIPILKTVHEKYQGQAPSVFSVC
UniProt Q6PHR2: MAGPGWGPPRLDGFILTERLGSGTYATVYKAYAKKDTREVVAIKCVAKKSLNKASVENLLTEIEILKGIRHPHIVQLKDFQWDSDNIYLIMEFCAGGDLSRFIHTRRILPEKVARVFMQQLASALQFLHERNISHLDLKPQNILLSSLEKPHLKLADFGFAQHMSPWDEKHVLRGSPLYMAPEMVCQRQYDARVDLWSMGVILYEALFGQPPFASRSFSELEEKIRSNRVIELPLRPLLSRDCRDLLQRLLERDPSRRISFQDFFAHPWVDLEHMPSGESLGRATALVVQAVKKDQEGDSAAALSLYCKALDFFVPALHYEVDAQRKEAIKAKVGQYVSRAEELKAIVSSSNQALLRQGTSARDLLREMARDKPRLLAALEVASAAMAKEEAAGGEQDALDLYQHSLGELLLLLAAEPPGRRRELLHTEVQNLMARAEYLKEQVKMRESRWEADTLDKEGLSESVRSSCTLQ
UniProt P31749: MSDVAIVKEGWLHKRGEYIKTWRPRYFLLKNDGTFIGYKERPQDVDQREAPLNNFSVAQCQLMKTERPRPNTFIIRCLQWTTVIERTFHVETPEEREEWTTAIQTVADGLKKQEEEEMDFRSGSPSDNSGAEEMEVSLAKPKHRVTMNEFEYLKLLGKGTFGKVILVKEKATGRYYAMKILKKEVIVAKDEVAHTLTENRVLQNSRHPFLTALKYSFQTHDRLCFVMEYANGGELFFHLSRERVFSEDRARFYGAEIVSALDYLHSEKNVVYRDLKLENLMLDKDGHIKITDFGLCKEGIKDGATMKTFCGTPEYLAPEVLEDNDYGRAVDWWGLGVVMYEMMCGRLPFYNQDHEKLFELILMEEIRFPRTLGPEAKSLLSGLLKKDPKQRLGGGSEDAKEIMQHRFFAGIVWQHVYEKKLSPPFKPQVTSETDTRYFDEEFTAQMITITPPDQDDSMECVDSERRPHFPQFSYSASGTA

Assays:
Details in all cases: K562; 2-18 h
RET = RET (UniProt P07949); assay: kinase-Nluc reporter destabilization hit call (1 = scored as downregulated) (binary); higher = compound decreases kinase abundance
[1] = target: RET_M918T (clone: RET_mut) (UniProt P07949); assay: as above
RIOK1 = RIOK1 (UniProt Q9BRS2); assay: as above
RIPK1 = RIPK1 (UniProt Q13546); assay: as above
RIPK2 = RIPK2 (UniProt O43353); assay: as above
ROR2 = ROR2 (UniProt Q01974); assay: as above
RPS6KA1 = RPS6KA1 (UniProt Q15418); assay: as above
SPHK1 = SPHK1 (UniProt Q9NYA1); assay: as above
SRC = SRC (UniProt P12931); assay: as above
STK24 = STK24 (UniProt Q9Y6E0); assay: as above
STK38 = STK38 (UniProt Q15208); assay: as above
SYK = SYK (UniProt P43405); assay: as above
TEC = TEC (UniProt P42680); assay: as above
TYK2 = TYK2 (UniProt P29597); assay: as above
ULK3 = ULK3 (UniProt Q6PHR2); assay: as above
YES1 = YES1 (UniProt P07947); assay: as above
ZAK = ZAK (UniProt Q9NYL2); assay: as above
ZAP70 = ZAP70 (UniProt P43403); assay: as above
ABL1 = ABL1 (UniProt P00519); assay: number of time points (of 5) at which kinase-Nluc abundance scored as decreased, DMSO-normalised (count); higher = more persistent destabilization
AKT1 = AKT1 (UniProt P31749); assay: as above

CC(C)n1cnc2c(Nc3cccc(Cl)c3)nc(N[C@H]3CCCC[C@@H]3N)nc21 (2.5 µM)
0: number of time points (ABL1) | number of time points (AKT1)
inactive: kinase-Nluc reporter destabilization hit call (RET) 0 | kinase-Nluc reporter destabilization hit call [1] 0 | kinase-Nluc reporter destabilization hit call (RIOK1) 0 | kinase-Nluc reporter destabilization hit call (RIPK1) 0 | kinase-Nluc reporter destabilization hit call (RIPK2) 0 | kinase-Nluc reporter destabilization hit call (ROR2) 0 | kinase-Nluc reporter destabilization hit call (RPS6KA1) 0 | kinase-Nluc reporter destabilization hit call (SPHK1) 0 | kinase-Nluc reporter destabilization hit call (SRC) 0 | kinase-Nluc reporter destabilization hit call (STK24) 0 | kinase-Nluc reporter destabilization hit call (STK38) 0 | kinase-Nluc reporter destabilization hit call (SYK) 0 | kinase-Nluc reporter destabilization hit call (TEC) 0 | kinase-Nluc reporter destabilization hit call (TYK2) 0 | kinase-Nluc reporter destabilization hit call (ULK3) 0 | kinase-Nluc reporter destabilization hit call (YES1) 0 | kinase-Nluc reporter destabilization hit call (ZAK) 0 | kinase-Nluc reporter destabilization hit call (ZAP70) 0

CN1C(=O)[C@@H](NC(=O)c2cc(Cc3ccccc3)on2)COc2ccccc21 (10 µM)
0: number of time points (ABL1) | number of time points (AKT1)
inactive: kinase-Nluc reporter destabilization hit call (RET) 0 | kinase-Nluc reporter destabilization hit call [1] 0 | kinase-Nluc reporter destabilization hit call (RIOK1) 0 | kinase-Nluc reporter destabilization hit call (RIPK2) 0 | kinase-Nluc reporter destabilization hit call (ROR2) 0 | kinase-Nluc reporter destabilization hit call (RPS6KA1) 0 | kinase-Nluc reporter destabilization hit call (SPHK1) 0 | kinase-Nluc reporter destabilization hit call (SRC) 0 | kinase-Nluc reporter destabilization hit call (STK24) 0 | kinase-Nluc reporter destabilization hit call (STK38) 0 | kinase-Nluc reporter destabilization hit call (SYK) 0 | kinase-Nluc reporter destabilization hit call (TEC) 0 | kinase-Nluc reporter destabilization hit call (TYK2) 0 | kinase-Nluc reporter destabilization hit call (ULK3) 0 | kinase-Nluc reporter destabilization hit call (YES1) 0 | kinase-Nluc reporter destabilization hit call (ZAK) 0 | kinase-Nluc reporter destabilization hit call (ZAP70) 0

NC(=O)c1c(NC(=O)C2CC2)sc2c1CCCC2 (10 µM)
inactive: kinase-Nluc reporter destabilization hit call (RET) 0 | kinase-Nluc reporter destabilization hit call [1] 0 | kinase-Nluc reporter destabilization hit call (RIOK1) 0 | kinase-Nluc reporter destabilization hit call (RIPK1) 0 | kinase-Nluc reporter destabilization hit call (RIPK2) 0 | kinase-Nluc reporter destabilization hit call (ROR2) 0 | kinase-Nluc reporter destabilization hit call (RPS6KA1) 0 | kinase-Nluc reporter destabilization hit call (SPHK1) 0 | kinase-Nluc reporter destabilization hit call (SRC) 0 | kinase-Nluc reporter destabilization hit call (STK24) 0 | kinase-Nluc reporter destabilization hit call (STK38) 0 | kinase-Nluc reporter destabilization hit call (SYK) 0 | kinase-Nluc reporter destabilization hit call (TEC) 0 | kinase-Nluc reporter destabilization hit call (TYK2) 0 | kinase-Nluc reporter destabilization hit call (ULK3) 0 | kinase-Nluc reporter destabilization hit call (YES1) 0 | kinase-Nluc reporter destabilization hit call (ZAK) 0 | kinase-Nluc reporter destabilization hit call (ZAP70) 0
0: number of time points (ABL1) | number of time points (AKT1)

CCNC(=O)Nc1ccc(-c2nc3c(c(N4CCOC[C@@H]4C)n2)CCN(C2COC2)C3)cc1 (2.5 µM)
0: number of time points (ABL1) | number of time points (AKT1)
inactive: kinase-Nluc reporter destabilization hit call (RET) 0 | kinase-Nluc reporter destabilization hit call [1] 0 | kinase-Nluc reporter destabilization hit call (RIOK1) 0 | kinase-Nluc reporter destabilization hit call (RIPK1) 0 | kinase-Nluc reporter destabilization hit call (RIPK2) 0 | kinase-Nluc reporter destabilization hit call (ROR2) 0 | kinase-Nluc reporter destabilization hit call (RPS6KA1) 0 | kinase-Nluc reporter destabilization hit call (SPHK1) 0 | kinase-Nluc reporter destabilization hit call (STK24) 0 | kinase-Nluc reporter destabilization hit call (STK38) 0 | kinase-Nluc reporter destabilization hit call (SYK) 0 | kinase-Nluc reporter destabilization hit call (TEC) 0 | kinase-Nluc reporter destabilization hit call (ULK3) 0 | kinase-Nluc reporter destabilization hit call (YES1) 0 | kinase-Nluc reporter destabilization hit call (ZAK) 0 | kinase-Nluc reporter destabilization hit call (ZAP70) 0

CCOC(=O)c1c(N2CCc3ccc(OC)cc3C2)oc(C=C2C=Nc3ncccc32)c1O (10 µM)
active: kinase-Nluc reporter destabilization hit call (TYK2) 1
1: number of time points (ABL1)
0: number of time points (AKT1)
inactive: kinase-Nluc reporter destabilization hit call (RET) 0 | kinase-Nluc reporter destabilization hit call [1] 0 | kinase-Nluc reporter destabilization hit call (RIOK1) 0 | kinase-Nluc reporter destabilization hit call (RIPK1) 0 | kinase-Nluc reporter destabilization hit call (RIPK2) 0 | kinase-Nluc reporter destabilization hit call (ROR2) 0 | kinase-Nluc reporter destabilization hit call (RPS6KA1) 0 | kinase-Nluc reporter destabilization hit call (SPHK1) 0 | kinase-Nluc reporter destabilization hit call (SRC) 0 | kinase-Nluc reporter destabilization hit call (STK24) 0 | kinase-Nluc reporter destabilization hit call (STK38) 0 | kinase-Nluc reporter destabilization hit call (SYK) 0 | kinase-Nluc reporter destabilization hit call (TEC) 0 | kinase-Nluc reporter destabilization hit call (ULK3) 0 | kinase-Nluc reporter destabilization hit call (YES1) 0 | kinase-Nluc reporter destabilization hit call (ZAK) 0 | kinase-Nluc reporter destabilization hit call (ZAP70) 0

Cc1ccc(Nc2cc(N[C@@H]3CCCC[C@@H]3N)nnc2C(N)=O)nc1C (2 µM)
0: number of time points (ABL1) | number of time points (AKT1)
inactive: kinase-Nluc reporter destabilization hit call (RET) 0 | kinase-Nluc reporter destabilization hit call [1] 0 | kinase-Nluc reporter destabilization hit call (RIOK1) 0 | kinase-Nluc reporter destabilization hit call (RIPK1) 0 | kinase-Nluc reporter destabilization hit call (RIPK2) 0 | kinase-Nluc reporter destabilization hit call (ROR2) 0 | kinase-Nluc reporter destabilization hit call (RPS6KA1) 0 | kinase-Nluc reporter destabilization hit call (SPHK1) 0 | kinase-Nluc reporter destabilization hit call (SRC) 0 | kinase-Nluc reporter destabilization hit call (STK24) 0 | kinase-Nluc reporter destabilization hit call (STK38) 0 | kinase-Nluc reporter destabilization hit call (TEC) 0 | kinase-Nluc reporter destabilization hit call (TYK2) 0 | kinase-Nluc reporter destabilization hit call (ULK3) 0 | kinase-Nluc reporter destabilization hit call (YES1) 0 | kinase-Nluc reporter destabilization hit call (ZAK) 0 | kinase-Nluc reporter destabilization hit call (ZAP70) 0

CCOC(=O)c1c(C)[nH]c(C=C2C(=O)Nc3ccccc32)c1C (10 µM)
inactive: kinase-Nluc reporter destabilization hit call (RET) 0 | kinase-Nluc reporter destabilization hit call [1] 0 | kinase-Nluc reporter destabilization hit call (RIOK1) 0 | kinase-Nluc reporter destabilization hit call (RIPK1) 0 | kinase-Nluc reporter destabilization hit call (RIPK2) 0 | kinase-Nluc reporter destabilization hit call (ROR2) 0 | kinase-Nluc reporter destabilization hit call (RPS6KA1) 0 | kinase-Nluc reporter destabilization hit call (SPHK1) 0 | kinase-Nluc reporter destabilization hit call (SRC) 0 | kinase-Nluc reporter destabilization hit call (STK24) 0 | kinase-Nluc reporter destabilization hit call (SYK) 0 | kinase-Nluc reporter destabilization hit call (TEC) 0 | kinase-Nluc reporter destabilization hit call (TYK2) 0 | kinase-Nluc reporter destabilization hit call (ULK3) 0 | kinase-Nluc reporter destabilization hit call (YES1) 0 | kinase-Nluc reporter destabilization hit call (ZAK) 0 | kinase-Nluc reporter destabilization hit call (ZAP70) 0
0: number of time points (ABL1) | number of time points (AKT1)

CCOc1cc(=O)[nH]cc1-c1ccc(CC(=O)Nc2cc(C(C)(C)C(F)(F)F)on2)c(F)c1 (10 µM)
0: number of time points (ABL1) | number of time points (AKT1)
inactive: kinase-Nluc reporter destabilization hit call (RIOK1) 0 | kinase-Nluc reporter destabilization hit call (RIPK1) 0 | kinase-Nluc reporter destabilization hit call (RIPK2) 0 | kinase-Nluc reporter destabilization hit call (ROR2) 0 | kinase-Nluc reporter destabilization hit call (RPS6KA1) 0 | kinase-Nluc reporter destabilization hit call (SPHK1) 0 | kinase-Nluc reporter destabilization hit call (SRC) 0 | kinase-Nluc reporter destabilization hit call (STK24) 0 | kinase-Nluc reporter destabilization hit call (STK38) 0 | kinase-Nluc reporter destabilization hit call (SYK) 0 | kinase-Nluc reporter destabilization hit call (TEC) 0 | kinase-Nluc reporter destabilization hit call (TYK2) 0 | kinase-Nluc reporter destabilization hit call (ULK3) 0 | kinase-Nluc reporter destabilization hit call (YES1) 0 | kinase-Nluc reporter destabilization hit call (ZAK) 0 | kinase-Nluc reporter destabilization hit call (ZAP70) 0

CC(=O)O/N=C1/C(c2c(O)[nH]c3cc(Br)ccc23)=Nc2ccccc21 [BIO-acetoxime] (10 µM)
0: number of time points (ABL1) | number of time points (AKT1)
inactive: kinase-Nluc reporter destabilization hit call (RET) 0 | kinase-Nluc reporter destabilization hit call [1] 0 | kinase-Nluc reporter destabilization hit call (RIOK1) 0 | kinase-Nluc reporter destabilization hit call (RIPK1) 0 | kinase-Nluc reporter destabilization hit call (RIPK2) 0 | kinase-Nluc reporter destabilization hit call (ROR2) 0 | kinase-Nluc reporter destabilization hit call (RPS6KA1) 0 | kinase-Nluc reporter destabilization hit call (SPHK1) 0 | kinase-Nluc reporter destabilization hit call (SRC) 0 | kinase-Nluc reporter destabilization hit call (STK24) 0 | kinase-Nluc reporter destabilization hit call (STK38) 0 | kinase-Nluc reporter destabilization hit call (SYK) 0 | kinase-Nluc reporter destabilization hit call (TEC) 0 | kinase-Nluc reporter destabilization hit call (TYK2) 0 | kinase-Nluc reporter destabilization hit call (ULK3) 0 | kinase-Nluc reporter destabilization hit call (YES1) 0 | kinase-Nluc reporter destabilization hit call (ZAK) 0 | kinase-Nluc reporter destabilization hit call (ZAP70) 0
